Test results as given in PMC4231765.
Results are given in words; binding and its absence hold for the method and conditions named. For part of these data: Binding seen in cells or lysates may run through a third protein. Some entries that bind do so weakly or less than the wild type. Sequences can lack the tags named with a protein.

Amino acid sequences for entries named in this document (tags omitted).
UniProt Q9SP32: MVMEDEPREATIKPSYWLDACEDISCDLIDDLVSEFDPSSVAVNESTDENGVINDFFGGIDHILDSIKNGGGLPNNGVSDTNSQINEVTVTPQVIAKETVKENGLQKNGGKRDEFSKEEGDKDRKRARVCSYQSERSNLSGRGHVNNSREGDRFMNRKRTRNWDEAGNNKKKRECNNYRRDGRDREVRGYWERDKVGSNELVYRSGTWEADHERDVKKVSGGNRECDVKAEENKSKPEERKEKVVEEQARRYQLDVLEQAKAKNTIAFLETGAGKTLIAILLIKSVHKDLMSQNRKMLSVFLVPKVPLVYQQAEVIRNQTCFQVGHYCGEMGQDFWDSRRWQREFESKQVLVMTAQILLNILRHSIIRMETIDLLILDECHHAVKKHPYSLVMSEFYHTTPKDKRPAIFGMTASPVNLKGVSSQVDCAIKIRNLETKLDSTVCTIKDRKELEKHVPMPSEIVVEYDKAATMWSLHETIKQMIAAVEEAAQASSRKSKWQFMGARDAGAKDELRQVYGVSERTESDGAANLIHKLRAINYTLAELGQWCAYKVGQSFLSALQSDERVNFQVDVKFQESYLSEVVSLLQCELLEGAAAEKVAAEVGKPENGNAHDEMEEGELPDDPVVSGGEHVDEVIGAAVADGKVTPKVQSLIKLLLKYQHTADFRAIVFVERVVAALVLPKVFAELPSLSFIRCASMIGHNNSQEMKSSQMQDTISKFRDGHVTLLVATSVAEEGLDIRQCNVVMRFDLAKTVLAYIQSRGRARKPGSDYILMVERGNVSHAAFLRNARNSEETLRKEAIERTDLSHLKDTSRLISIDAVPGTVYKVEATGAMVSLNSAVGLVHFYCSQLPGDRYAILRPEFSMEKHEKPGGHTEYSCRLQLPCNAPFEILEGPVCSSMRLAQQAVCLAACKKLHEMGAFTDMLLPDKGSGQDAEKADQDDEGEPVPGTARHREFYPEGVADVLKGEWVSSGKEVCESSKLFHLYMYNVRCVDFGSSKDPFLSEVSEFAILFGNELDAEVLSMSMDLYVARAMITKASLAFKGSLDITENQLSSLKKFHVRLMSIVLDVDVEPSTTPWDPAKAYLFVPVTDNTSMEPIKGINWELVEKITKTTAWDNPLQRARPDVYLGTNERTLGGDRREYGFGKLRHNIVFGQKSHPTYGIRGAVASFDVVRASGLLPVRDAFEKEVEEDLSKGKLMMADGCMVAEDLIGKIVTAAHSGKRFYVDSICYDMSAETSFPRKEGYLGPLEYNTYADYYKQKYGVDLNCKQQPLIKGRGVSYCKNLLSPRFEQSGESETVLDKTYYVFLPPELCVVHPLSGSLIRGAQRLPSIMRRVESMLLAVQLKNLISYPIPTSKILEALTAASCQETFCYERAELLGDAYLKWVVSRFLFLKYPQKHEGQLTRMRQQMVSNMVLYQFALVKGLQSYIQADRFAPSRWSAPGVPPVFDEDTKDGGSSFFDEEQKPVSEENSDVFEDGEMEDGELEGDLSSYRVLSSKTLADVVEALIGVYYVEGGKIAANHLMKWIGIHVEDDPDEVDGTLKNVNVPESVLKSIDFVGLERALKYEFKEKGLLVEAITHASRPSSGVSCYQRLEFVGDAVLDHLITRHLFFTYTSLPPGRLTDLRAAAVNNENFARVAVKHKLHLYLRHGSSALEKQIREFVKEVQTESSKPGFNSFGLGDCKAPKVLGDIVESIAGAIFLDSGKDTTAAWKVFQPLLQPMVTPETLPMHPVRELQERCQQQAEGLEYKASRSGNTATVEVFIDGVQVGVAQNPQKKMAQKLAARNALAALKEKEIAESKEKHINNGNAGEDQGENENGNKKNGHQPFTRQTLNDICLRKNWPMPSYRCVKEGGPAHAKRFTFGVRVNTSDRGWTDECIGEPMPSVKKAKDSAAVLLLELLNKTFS

Legend:
[1] = biological target: T1, HYL1 R162E, BiFC fusion (Arabidopsis thaliana) (UniProt O04492); assay: split reporter; BiFC in Arabidopsis protoplasts, data not shown
T1 sequence: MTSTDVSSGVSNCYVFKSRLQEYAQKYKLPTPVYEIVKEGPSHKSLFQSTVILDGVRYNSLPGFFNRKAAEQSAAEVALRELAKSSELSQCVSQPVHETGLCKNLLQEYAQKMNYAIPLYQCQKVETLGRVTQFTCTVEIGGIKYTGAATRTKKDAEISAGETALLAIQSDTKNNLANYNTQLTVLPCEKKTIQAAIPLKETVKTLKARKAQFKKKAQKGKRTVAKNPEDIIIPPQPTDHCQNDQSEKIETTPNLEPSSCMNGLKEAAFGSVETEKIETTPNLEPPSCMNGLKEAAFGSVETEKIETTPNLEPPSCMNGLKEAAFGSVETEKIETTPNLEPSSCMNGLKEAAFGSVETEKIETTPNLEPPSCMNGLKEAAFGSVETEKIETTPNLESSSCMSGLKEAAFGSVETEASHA

[2] = biological target: T2, HYL1 R151E, BiFC fusion (Arabidopsis thaliana) (UniProt O04492); assay: as above
T2 sequence: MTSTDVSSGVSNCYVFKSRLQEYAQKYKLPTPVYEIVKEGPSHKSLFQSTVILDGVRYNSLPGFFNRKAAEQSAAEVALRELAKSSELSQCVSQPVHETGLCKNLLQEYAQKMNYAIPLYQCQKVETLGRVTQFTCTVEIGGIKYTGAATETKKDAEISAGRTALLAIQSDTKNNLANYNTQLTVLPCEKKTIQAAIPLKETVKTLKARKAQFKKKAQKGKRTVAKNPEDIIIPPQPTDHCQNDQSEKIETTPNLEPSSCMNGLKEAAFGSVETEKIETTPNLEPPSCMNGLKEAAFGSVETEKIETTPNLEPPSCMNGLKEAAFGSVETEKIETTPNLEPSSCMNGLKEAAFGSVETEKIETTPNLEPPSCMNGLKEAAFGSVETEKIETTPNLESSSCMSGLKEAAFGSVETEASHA

[3] = biological target: T3, HYL1 K154E, BiFC fusion (Arabidopsis thaliana) (UniProt O04492); assay: as above
T3 sequence: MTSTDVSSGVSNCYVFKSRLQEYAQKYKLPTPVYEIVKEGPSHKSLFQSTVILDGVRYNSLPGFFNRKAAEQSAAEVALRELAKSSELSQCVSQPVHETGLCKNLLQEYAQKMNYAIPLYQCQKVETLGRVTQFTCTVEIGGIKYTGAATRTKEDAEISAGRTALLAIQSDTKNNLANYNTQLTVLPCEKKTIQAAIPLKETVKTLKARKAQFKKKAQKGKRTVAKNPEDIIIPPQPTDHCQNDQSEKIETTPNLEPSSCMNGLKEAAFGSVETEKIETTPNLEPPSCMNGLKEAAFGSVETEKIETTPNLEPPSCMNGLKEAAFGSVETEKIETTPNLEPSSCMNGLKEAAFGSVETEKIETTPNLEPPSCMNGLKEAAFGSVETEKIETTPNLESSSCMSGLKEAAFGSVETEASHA

[4] = biological target: T4, HYL1, wild type, BiFC fusion (nYFP- and cYFP-tagged) (Arabidopsis thaliana) (UniProt O04492); assay: split reporter; BiFC: cYFP-tagged and nYFP-tagged constructs cotransformed into Arabidopsis protoplasts, 22.5°C in darkness for 12 h, confocal microscopy
T4 sequence: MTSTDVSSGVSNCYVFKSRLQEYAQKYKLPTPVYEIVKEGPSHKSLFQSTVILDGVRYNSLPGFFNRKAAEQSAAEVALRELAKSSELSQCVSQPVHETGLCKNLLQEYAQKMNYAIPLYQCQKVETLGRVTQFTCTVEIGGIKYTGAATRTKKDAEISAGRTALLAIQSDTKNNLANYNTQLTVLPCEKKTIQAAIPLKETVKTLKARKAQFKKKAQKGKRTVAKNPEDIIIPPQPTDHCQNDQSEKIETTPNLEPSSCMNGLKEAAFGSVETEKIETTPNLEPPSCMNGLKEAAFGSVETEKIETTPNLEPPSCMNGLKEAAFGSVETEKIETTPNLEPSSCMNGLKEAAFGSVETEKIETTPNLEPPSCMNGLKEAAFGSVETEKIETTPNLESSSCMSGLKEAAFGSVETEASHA

[5] = biological target: T5, HYL1^L165E, BiFC fusion (Arabidopsis thaliana) (UniProt O04492); assay: as above
T5 sequence: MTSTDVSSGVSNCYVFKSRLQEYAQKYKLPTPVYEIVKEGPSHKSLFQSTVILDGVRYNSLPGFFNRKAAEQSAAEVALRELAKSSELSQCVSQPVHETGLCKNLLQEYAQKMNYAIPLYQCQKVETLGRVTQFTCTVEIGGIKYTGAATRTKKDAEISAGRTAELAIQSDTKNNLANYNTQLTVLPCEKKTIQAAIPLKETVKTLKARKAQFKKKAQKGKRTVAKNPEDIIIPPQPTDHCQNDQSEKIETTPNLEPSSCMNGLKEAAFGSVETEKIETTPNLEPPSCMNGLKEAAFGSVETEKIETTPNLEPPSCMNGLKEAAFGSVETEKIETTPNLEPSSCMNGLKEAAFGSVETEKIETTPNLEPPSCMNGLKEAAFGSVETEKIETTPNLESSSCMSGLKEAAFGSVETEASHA

[6] = biological target: T6, HYL1^G147E, BiFC fusion (Arabidopsis thaliana) (UniProt O04492); assay: as above
T6 sequence: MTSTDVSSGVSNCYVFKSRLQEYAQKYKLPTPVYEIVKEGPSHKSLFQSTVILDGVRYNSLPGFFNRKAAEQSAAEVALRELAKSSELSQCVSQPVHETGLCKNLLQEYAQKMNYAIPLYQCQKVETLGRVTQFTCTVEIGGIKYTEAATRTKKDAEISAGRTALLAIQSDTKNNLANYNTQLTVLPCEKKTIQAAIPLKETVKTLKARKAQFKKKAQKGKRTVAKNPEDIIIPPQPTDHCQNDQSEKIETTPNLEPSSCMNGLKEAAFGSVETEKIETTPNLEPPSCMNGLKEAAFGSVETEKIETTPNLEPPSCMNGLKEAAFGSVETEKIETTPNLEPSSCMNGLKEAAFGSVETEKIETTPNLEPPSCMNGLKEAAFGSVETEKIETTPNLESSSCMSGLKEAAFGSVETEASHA

[7] = biological target: T7, HYL1^L165E, recombinant (MBP-L165E and GST-L165E) (Arabidopsis thaliana) (UniProt O04492); assay: pull-down; recombinant HYL1 or mutant from E. coli with DCL1 or SE tagged with 3×Flag purified from HEK293; western analysis; bait not stated; both purified
T7 sequence: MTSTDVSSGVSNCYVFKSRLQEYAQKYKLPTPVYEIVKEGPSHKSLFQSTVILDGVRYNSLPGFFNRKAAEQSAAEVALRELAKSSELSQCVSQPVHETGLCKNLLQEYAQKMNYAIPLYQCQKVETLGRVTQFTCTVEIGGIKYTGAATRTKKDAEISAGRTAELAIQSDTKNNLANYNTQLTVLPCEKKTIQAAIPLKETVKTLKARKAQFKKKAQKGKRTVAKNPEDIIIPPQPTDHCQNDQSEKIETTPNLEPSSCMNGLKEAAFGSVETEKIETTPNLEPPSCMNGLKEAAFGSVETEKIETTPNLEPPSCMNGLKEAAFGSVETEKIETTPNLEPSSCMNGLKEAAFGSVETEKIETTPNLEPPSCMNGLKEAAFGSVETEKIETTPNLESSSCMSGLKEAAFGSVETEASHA

[8] = biological target: T8, HYL1^G147E, recombinant (MBP-G147E and GST-G147E) (Arabidopsis thaliana) (UniProt O04492); assay: as above
T8 sequence: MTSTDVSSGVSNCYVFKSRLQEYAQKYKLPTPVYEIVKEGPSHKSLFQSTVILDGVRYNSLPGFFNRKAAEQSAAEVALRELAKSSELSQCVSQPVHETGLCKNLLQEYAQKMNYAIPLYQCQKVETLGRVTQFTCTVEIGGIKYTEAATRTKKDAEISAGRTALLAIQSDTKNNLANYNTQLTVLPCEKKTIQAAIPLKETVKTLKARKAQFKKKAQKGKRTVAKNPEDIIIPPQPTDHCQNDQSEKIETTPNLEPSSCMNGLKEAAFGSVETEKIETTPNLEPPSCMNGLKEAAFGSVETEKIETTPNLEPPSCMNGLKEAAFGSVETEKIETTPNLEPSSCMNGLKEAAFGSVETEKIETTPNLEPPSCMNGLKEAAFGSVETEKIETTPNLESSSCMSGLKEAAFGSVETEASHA

[9] = biological target: T9, HYL1, full-length, recombinant (MBP-HYL1 and GST-HYL1) (Arabidopsis thaliana) (UniProt O04492); assay: as above
T9 sequence: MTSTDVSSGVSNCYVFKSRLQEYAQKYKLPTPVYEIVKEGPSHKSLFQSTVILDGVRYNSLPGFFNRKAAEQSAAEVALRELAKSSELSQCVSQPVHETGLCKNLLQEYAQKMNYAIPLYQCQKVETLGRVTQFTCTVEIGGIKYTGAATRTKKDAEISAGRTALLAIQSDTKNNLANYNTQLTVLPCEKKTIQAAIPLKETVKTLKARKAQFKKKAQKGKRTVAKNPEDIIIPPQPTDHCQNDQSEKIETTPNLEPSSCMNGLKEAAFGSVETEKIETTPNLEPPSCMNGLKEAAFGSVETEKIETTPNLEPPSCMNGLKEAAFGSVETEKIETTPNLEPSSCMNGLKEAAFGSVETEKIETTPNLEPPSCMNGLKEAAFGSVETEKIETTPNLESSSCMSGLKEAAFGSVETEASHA

Measured: binding

DCL1, BiFC fusion (from UniProt Q9SP32 1-1909) (enzyme)
not listed: [7] | [8] | [9]
binds: all other assays above

DCL1 tagged with 3×Flag, recombinant (from UniProt Q9SP32 1-1909) (enzyme)
binds: [7] | [8] | [9]
